This note sets out measurements from PubChem BioAssay AID1487 (National Center for Advancing Translational Sciences (NCATS), 2009).

This assay in a line: qHTS Assay for Modulators of Lamin A Splicing. The conditions noted are these: HeLa LMNA splicing GFP/RFP minigene ratio, 48 h. The method, boiled down: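 S3 HeLa cells stably expressing lamin A-EGFP splicing minigene plus DsRed2, 600 cells/well, 48 h compound exposure at 37C. Laser-scanning cytometry; analysed as GFP (500-530 nm)/RFP (575-640 nm) total intensity ratio; 0.5% DMSO vehicle.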
For orientation: In qHTS, concentration-response curves come from the screen itself.

Where [1] appears, read: measured here: GFP splicing reporter channel.
Where [2] appears, read: measured here: RFP viability control channel.

The structures appear in SMILES notation. This is one part of the list. Further columns of the screen follow, without active or inactive calls. The list favours compounds with an active or inconclusive main result. Potencies come from curve fits of mixed quality, noted in brackets.

Broadly, the AC50 is the concentration at which the activity in the assay is half-maximal. Take `Cc1ccc(N=CC=C2OC(C)(C)C(C)(C)O2)c(C)c1`: the AC50 under setting [1] is 12.6 µM [rising, single point] and the AC50 under setting [2] was 10 µM [rising, partial curve, poor fit]. `COc1cc2c(cc1OC)C(c1ccc(-c3ccccc3Cl)o1)=NCC2`: the AC50 under setting [2] is 22.4 µM [rising, single point].

Consider `CN(C)S(=O)(=O)c1ccc(NC(=O)/C=C/c2ccccc2Cl)cc1`, for which the concentration at half-maximal activity (AC50) reads like this: under setting [1], 11.2 µM [rising, single point]; under setting [2], 11.2 µM [rising, partial curve, poor fit]. As for `CCC(C(=O)Nc1ccccc1OC)n1c(C(=O)OC)cc2ccsc21` (stereo not drawn), under setting [1], the half-maximal activity concentration (AC50) was 0.178 µM [rising, full curve]. Consider `O=C(CN1CCOCC1)Nc1ccccc1`, for which the half-maximal activity concentration (AC50) was 3.16 µM [falling, single point] under setting [1] and 3.16 µM [falling, single point] under setting [2]. For `O=C(Nc1ccc(N2CCN(C(=O)c3ccco3)CC2)cc1)c1cccnc1Cl`, the concentration at half-maximal activity (AC50) under setting [2] is 0.0447 µM [falling, full curve, poor fit].

For the molecule `COc1ccc(C2C(C#N)=C(N)Oc3c2c(-c2ccccc2)nn3-c2ccccc2)c(OC)c1OC` (stereo not drawn), the concentration at half-maximal activity (AC50) under setting [2] was 35.5 µM [rising, single point]. Regarding `N#C/C(=C\c1ccc([N+](=O)[O-])o1)C(=O)Nc1ccc(F)cc1`, the AC50 by setting is: under setting [1], 35.5 µM [falling, partial curve]; under setting [2], 28.2 µM [falling, partial curve]. Regarding `CCOc1ccc(CSCCNC(=S)Nc2ccccc2)cc1`, the half-maximal activity concentration (AC50) under setting [2] was 14.1 µM [rising, single point]. As for `O=c1[nH]ccc2c(O)cccc12`, the concentration at half-maximal activity (AC50) is 1.12 µM [falling, partial curve] under setting [1] and 31.6 µM [rising, single point] under setting [2]. As to `C=CCn1c(=NC(=O)c2ccccc2[N+](=O)[O-])sc2cc(S(C)(=O)=O)ccc21`, the AC50 under setting [2] was 14.1 µM [rising, single point]. `COc1cccc(NC(=O)c2oc3ccc(S(=O)(=O)N4CCC5(CC4)OCCO5)cc3c2C)c1`: the half-maximal activity concentration (AC50) is, setting by setting: under setting [1], 5.62 µM [falling, single point]; under setting [2], 7.94 µM [falling, single point]. As to `Cc1ccccc1CSCc1ccc(C(=O)NCCc2ccccc2)o1`, the AC50 reads like this: under setting [1], 1.12 µM [falling, partial curve, poor fit]; under setting [2], 6.31 µM [falling, partial curve].

`CCC(CO)NCc1ccccc1OC(C)C` (stereo not drawn): the concentration at half-maximal activity (AC50) under setting [1] is 0.251 µM [rising, full curve, poor fit]. For `O=c1c(-c2ccccc2)nc2cncnc2n1Cc1ccccc1`, the concentration at half-maximal activity (AC50) runs as follows: under setting [1], 0.282 µM [falling, full curve, poor fit]; under setting [2], 0.355 µM [falling, full curve, poor fit].
